Among the data in PMC7381282 are binding values, retold here.

By UniProt entry, the sequences of proteins in these tests, tags left out.
UniProt O73885: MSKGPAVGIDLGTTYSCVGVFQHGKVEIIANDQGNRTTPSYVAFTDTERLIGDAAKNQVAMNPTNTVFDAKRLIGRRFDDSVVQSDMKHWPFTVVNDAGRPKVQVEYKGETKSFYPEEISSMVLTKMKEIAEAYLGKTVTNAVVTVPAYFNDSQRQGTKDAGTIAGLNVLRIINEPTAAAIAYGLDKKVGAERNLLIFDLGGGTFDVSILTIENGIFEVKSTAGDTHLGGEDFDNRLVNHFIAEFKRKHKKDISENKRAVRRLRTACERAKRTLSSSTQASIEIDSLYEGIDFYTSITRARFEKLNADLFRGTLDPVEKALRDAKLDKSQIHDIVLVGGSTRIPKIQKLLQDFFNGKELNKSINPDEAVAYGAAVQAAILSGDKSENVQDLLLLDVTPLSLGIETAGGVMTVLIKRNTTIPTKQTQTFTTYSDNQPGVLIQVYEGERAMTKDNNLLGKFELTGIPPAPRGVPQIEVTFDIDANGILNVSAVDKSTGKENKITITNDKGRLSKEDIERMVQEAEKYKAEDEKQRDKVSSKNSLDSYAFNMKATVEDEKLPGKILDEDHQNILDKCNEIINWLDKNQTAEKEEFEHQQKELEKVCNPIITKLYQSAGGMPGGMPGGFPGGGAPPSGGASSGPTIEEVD

These are yes or no findings as the source states them, for the method shown. Binding seen in cells or lysates may run through a third protein. Here binding means that the protein was enriched with, or labelled near, the bait; the list need not be complete.

This assay concerns the target T1, IBV M41 spike protein (infectious bronchitis virus (IBV) strain M41) (UniProt P12651).
T1 sequence: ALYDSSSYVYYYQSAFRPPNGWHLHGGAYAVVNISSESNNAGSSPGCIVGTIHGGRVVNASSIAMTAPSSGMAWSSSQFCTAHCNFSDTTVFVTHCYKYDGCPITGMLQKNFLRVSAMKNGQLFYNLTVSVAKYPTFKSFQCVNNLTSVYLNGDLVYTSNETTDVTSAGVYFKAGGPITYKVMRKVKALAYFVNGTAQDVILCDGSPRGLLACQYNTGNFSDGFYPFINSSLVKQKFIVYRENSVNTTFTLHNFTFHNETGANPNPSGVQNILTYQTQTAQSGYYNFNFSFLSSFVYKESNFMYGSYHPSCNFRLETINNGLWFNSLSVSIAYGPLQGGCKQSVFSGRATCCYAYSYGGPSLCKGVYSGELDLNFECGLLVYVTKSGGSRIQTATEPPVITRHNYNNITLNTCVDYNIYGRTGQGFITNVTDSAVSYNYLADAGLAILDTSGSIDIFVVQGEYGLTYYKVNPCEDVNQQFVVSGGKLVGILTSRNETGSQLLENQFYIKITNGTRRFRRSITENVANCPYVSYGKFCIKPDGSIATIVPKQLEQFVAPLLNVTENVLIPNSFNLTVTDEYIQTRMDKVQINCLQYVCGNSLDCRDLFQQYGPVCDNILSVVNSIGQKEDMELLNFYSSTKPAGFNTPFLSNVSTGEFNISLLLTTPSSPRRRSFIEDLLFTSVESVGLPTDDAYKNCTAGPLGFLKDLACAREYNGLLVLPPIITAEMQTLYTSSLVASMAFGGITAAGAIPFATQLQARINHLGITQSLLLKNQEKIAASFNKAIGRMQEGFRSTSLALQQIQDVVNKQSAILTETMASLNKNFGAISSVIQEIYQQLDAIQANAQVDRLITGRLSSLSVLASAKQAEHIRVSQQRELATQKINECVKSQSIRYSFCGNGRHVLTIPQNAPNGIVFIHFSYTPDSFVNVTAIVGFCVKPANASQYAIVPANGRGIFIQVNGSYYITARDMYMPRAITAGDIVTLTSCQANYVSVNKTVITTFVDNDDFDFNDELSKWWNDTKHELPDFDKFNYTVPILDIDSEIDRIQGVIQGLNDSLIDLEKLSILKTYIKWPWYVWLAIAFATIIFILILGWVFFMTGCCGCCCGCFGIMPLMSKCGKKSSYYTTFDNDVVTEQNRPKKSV
Kind of assay: affinity purification with mass spectrometry; membrane protein extracts of IBV M41-infected CEK cells immunoprecipitated with mAb 1H1 to spike protein or mouse IgG; silver staining; the specific 70 kDa band analysed by LC-MS/MS.

In the case of “heat shock protein member 8 (HSPA8), chicken, endogenous (from UniProt O73885 1-646)”, the binding result is given as “binds”.
